{
  "source": "patent US6384204",
  "key": {"[1]": {"target": "T1, Pet-1 DNA binding domain-VP16 fusion (Rattus norvegicus) (UniProt O70132)", "T1 sequence": "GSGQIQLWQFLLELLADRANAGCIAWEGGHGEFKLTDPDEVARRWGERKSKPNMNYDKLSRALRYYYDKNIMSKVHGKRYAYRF", "experiment": "activity in cells", "conditions": "four copies upstream of MLP; activation in retinal cultures; protein in cells; only the site is given"}, "[2]": {"target": "T2, Pet-1 (CGS-Pet-1) (Rattus norvegicus) (UniProt O70132)", "T2 sequence (limits assumed)": "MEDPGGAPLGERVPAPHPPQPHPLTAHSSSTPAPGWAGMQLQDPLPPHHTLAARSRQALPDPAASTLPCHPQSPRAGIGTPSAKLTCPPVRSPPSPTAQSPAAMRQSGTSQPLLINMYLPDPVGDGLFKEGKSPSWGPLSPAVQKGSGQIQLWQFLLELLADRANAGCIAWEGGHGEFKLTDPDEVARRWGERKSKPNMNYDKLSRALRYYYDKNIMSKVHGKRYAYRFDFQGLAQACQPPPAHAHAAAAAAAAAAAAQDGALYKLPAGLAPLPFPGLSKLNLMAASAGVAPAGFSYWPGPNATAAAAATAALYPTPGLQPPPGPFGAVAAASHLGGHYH", "experiment": "activity in cells", "conditions": "protein in cells, only the site is given"}},
  "note": "For part of these data: A negative result means that nothing was seen under these conditions. Where a protein sequence is shown, tags need not be part of it.",
  "data": [
    {"sequence": "GGGAGGAAATG (double strand) [m5HTT (-2024/-2014)]", "values": [
      {"measurement": "activity on this sequence", "setting": "[1]", "value": "active"}
    ]},
    {"sequence": "CAGGAAGTGACTCAGGAAGTGACTCAGGAAGTGACAC (double strand) [3XP]", "values": [
      {"measurement": "activity on this sequence", "setting": "[2]; dose-dependent repression of luciferase reporter in C6 cells", "value": "active"}
    ]},
    {"sequence": "CATCAAGTGACTCATCAAGTGACTCATCAAGTGACAC (double strand) [3XPm]", "values": [
      {"measurement": "activity on this sequence", "setting": "[2]; no repression in C6 cells, variant of 3XP", "value": "not active"}
    ]}
  ]
}
